# Experimental data published in PubChem BioAssay AID504444 (National Center for Advancing Translational Sciences (NCATS), 2011).
# The campaign covered roughly 360,000 compounds. About 7,500 (2.1%) were called active. Inconclusive results, whose numbers are uncertain, are shown with a selection of clear calls. Calls come from the whole dose curve; as a rule, active = well fitted inhibition curve with a large enough effect; inconclusive = small, poorly fitted or top-dose-only effect, or effect the other way; inactive = flat fitted curve, though single readings scatter. Potencies beside an inconclusive call are fits to weak or partial responses and may not hold up.
# Experiment: Nrf2 qHTS screen for inhibitors; note: nearly all actives have a fitted effect of over 60% in size
# Conditions: A549 ARE-Fluc reporter, luciferase luminescence, 18-24 h; series mostly up to 46 µM
# Summary of the method: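 Quantitative HTS in A549 cells stably bearing an antioxidant response element-firefly luciferase construct. Inhibition of Nrf2-driven transcription was scored by luminescence after 18-24 h of compound exposure at 37 °C.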
# Potency is the fitted concentration of half-maximal effect.
row,Structure (SMILES),Potency
1,Cc1ccc(NC(=O)c2sc(Cl)nc2C)c(C)c1,inactive
2,CC1=C(C(=O)Nc2ccccc2)C(c2ccc(N(C)C)cc2)NC(=O)N1 (stereo not drawn),"inconclusive: 4.11 µM [falling, partial curve, poor fit]"
3,CCOC(=O)c1ccc(N2C(=O)c3n[nH]c(C)c3C2c2ccc(OCC)cc2)cc1 (stereo not drawn),"inconclusive: 16.4 µM [falling, single point]"
4,COc1ccc(-c2cc(=O)oc3c(C)c(OC(=O)c4cccs4)ccc23)cc1,"inconclusive: 16.4 µM [activator, partial curve, poor fit]"
5,COc1nc(C)nc2c1sc1nc3c(cc12)COC(C)(C)C3,"inconclusive: 1.64 µM [activator, partial curve, poor fit]"
6,Cc1ccc(N2C(=O)CSC2c2c(F)cccc2Cl)cc1 (stereo not drawn),inactive
7,O=C(CCN1CCOCC1)Nc1cc(C(=O)Nc2ccc(Cl)cc2)ccc1N1CC2CC(C1)c1cccc(=O)n1C2 (stereo not drawn),"inconclusive: 29.1 µM [falling, partial curve, poor fit]"
8,C(=N\Nc1ncnc2ccccc12)/c1ccccc1,"inconclusive: 4.61 µM [activator, single point]"
9,Cc1ccc(CNC(=O)c2ccc(N(C)S(=O)(=O)c3ccccc3)cc2)cc1,"inconclusive: 7.31 µM [falling, partial curve, poor fit]"
10,CCOC(=O)c1ccc(N=c2sc(C(=O)OC)cc(=O)n2Cc2ccco2)cc1,"inconclusive: 20.6 µM [falling, partial curve, poor fit]"
11,CS(=O)(=O)N(CC(=O)N1CCCC1)c1ccc(OCc2ccccc2)cc1,"inconclusive: 16.4 µM [falling, partial curve, poor fit]"
12,COc1cc(OC)nc(Oc2ccc(NC(C)=O)cc2)n1,inactive
13,CCc1ccc(OCCCCn2c(CCNC(=O)C3CCCCC3)nc3ccccc32)cc1,inactive
14,CC(NC(=O)CCSc1nc(-c2ccc3c(c2)OCO3)cc(C(F)(F)F)n1)c1ccccc1 (stereo not drawn),"inconclusive: 29.1 µM [falling, single point]"
15,Cc1nn(-c2ccc(N3CCCC3)nn2)c(C)c1CCC(=O)N1CCN(c2ccccc2)CC1,inactive
16,COc1ccc2c(C)c(CCC(=O)NCc3ccc(Cl)cc3)c(=O)oc2c1C,inactive
17,O=C(Nc1cccc(S(=O)(=O)N2CCOCC2)c1)C12CC3CC(CC(C3)C1)C2,inactive
18,O=C(N/N=C/c1cn(-c2cccs2)nc1-c1ccccc1)c1ccccc1Br,inactive
19,COc1ccc2cc(C(=O)N3CCN(Cc4ccc5c(c4)OCO5)CC3)[nH]c2c1,active: 20.6 µM
20,CCOc1ccc(N2C(=O)CC(Sc3nc4ccc(OCC)cc4s3)C2=O)cc1 (stereo not drawn),inactive
21,Cc1cnccc1CN(C)Cc1cn(C)nc1-c1ccc(Oc2ccccc2)cc1,"inconclusive: 29.1 µM [falling, single point]"
22,Cc1ccc(C(=O)N2CCN(Cc3nc4sc5c(c4c(=O)[nH]3)CCCC5)CC2)cc1,inactive

row,Structure (SMILES),Potency
1,COc1ccc(CNC(=O)c2ccc(C(C)(C)C)cc2)cc1,"inconclusive: 8.2 µM [activator, partial curve]"
2,C[n+]1c(/C=C/c2ccc3c(c2)OCO3)ccc2ccccc21,"inconclusive: 18.4 µM [activator, partial curve]"
3,COc1cccc(CN2CCCC(CNC(=O)c3ccc(F)cc3)C2)c1OC (stereo not drawn),inactive
4,NC(=O)c1ccc(NC(=O)COC(=O)c2c3c(nc4ccccc24)/C(=C\c2cccs2)CCC3)cc1,inactive
5,O=C(NC1CCCC1)c1cc(-c2ccc(Cl)cc2)on1,"inconclusive: 1.84 µM [activator, full curve, poor fit]"
6,Cc1cc(C)n(-c2nc3sc4c(c3c3nnc(SC(C)C)n23)CC(C)(C)OC4)n1,"inconclusive: 3.55 µM [activator, single point]"
7,CC1(C)Oc2ccc3ccc(=O)oc3c2-c2cnoc21,"inconclusive: 14.6 µM [activator, partial curve, poor fit]"
8,O=C(N/N=C/c1ccc([N+](=O)[O-])o1)C1CCCC1,active: 16.4 µM
9,O=C(O)CCCCCN1C(=O)/C(=C/c2ccncc2)SC1=S,"inconclusive: 29.1 µM [activator, single point]"
10,O=C(CSc1nnc(-c2ccc(Br)cc2)o1)Nc1cccc(C(=O)O)c1,"inconclusive: 20.6 µM [falling, single point]"
11,COCCn1c(C)cc(C(=O)CN2C(=O)NC3(CCCCCC3)C2=O)c1C,"inconclusive: 7.31 µM [activator, partial curve]"
12,COCCNc1oc(-c2cccs2)nc1S(=O)(=O)c1ccc(C)cc1,"inconclusive: 23.1 µM [falling, partial curve, poor fit]"
13,C=CCN(C(=O)C1CSC2(C)CCC(=O)N12)c1nc(-c2ccccc2)cs1 (stereo not drawn),"inconclusive: 29.1 µM [falling, single point]"
14,CCOC(=O)CN1C(=O)C2Cc3ccccc3CN2C1=S (stereo not drawn),"inconclusive: 18.4 µM [falling, partial curve, poor fit]"
15,COC(=O)c1ccc(CNC(=O)c2cc(COc3cncc(Cl)c3)on2)cc1,inactive
16,COc1ccc(-c2csc(N(C)C(=O)c3cccs3)n2)cc1,"inconclusive: 1.64 µM [activator, full curve]"
17,CN(Cc1cccnc1)C(=O)c1ccc2nc(Cc3ccccc3F)oc2c1,"inconclusive: 5.8 µM [activator, single point]"
18,Cc1cccc(C(=O)NCC(=O)N2CCN(S(=O)(=O)c3ccccc3)CC2)c1,"inconclusive: 1.64 µM [falling, partial curve, poor fit]"
19,Cc1nc2nc(CSc3nnc(C)s3)cc(=O)n2[nH]1,"inconclusive: 5.8 µM [falling, partial curve, poor fit]"
20,COc1cc(OC)cc(C(=O)Nc2ccc3nc(Nc4cccc(C(F)(F)F)c4)cc(C)c3c2)c1,"inconclusive: 20.6 µM [falling, single point]"
21,Cc1ncc(CN2CCCC(C(=O)Nc3ccc(-c4ccco4)cc3)C2)cn1 (stereo not drawn),"inconclusive: 0.103 µM [falling, full curve, poor fit]"

# In the list so far, these contain a CF3 group:
row,Structure (SMILES),Potency
14,CC(NC(=O)CCSc1nc(-c2ccc3c(c2)OCO3)cc(C(F)(F)F)n1)c1ccccc1 (stereo not drawn),"inconclusive: 29.1 µM [falling, single point]"
20,COc1cc(OC)cc(C(=O)Nc2ccc3nc(Nc4cccc(C(F)(F)F)c4)cc(C)c3c2)c1,"inconclusive: 20.6 µM [falling, single point]"
